Entries after “also recorded” stand apart in the source; their conditions may differ. At least one compound was matched to its structure with a doubt left.
System: T cells transduced with reporter+TPO-R
Assay: Expansion of TPO-R transduced T cells in vitro
Type: cell-based, human
Description: FIGS. 2A-2D: Transgenic TPO-R enables controllable T cell expansion. T cells were transduced with the reporter NGFR, or with reporter+the thrombopoietin receptor (TPOR) and stimulated with eltrombopag, a specific small molecule agonist of TPOR, in vitro. FIG. 2A: Cell number is shown to increase only in the presence of the TPOR agonist. […] FIG. 2C: All cells that express the reporter (tNGFR) also express the TPO receptor.
Recombinant erythropoietin (Epo) and G-CSF are commercially approved for the treatment for anemia of chronic kidney disease, and for chemotherapy-related neutropenia, respectively. Clinical development of a recombinant thrombopoietin (TPO) was superseded by two TPO receptor (TPO-R, also known as c-Mpl) peptidomimetic drugs that are now approved for the treatment of immune thrombocytopenic purpura (romiplostim, and eltrombopag). […] Results of the TPO-R experiments were recapitulated herein (FIGS. 2A-2D). T cells were transduced with the reporter NGFR, or with reporter+TPO-R and stimulated with eltrombopag, a specific small molecule agonist of TPOR, in vitro. […] In FIG. 2C, it is shown that there is a 1:1 expression of the reporter NGFR with the TPO receptor after 12 days of eltrombopag treatment.

CC1=NN(c2ccc(C)c(C)c2)C(=O)/C1=N\Nc1cccc(-c2cccc(C(=O)O)c2)c1O [EP, eltrombopag, reference compound]
enrichment / expansion of transduced cells (12 days of treatment, MV pseudotyped lentivector, FIG. 2B): selective enrichment; also recorded: specific expansion | cell number / proliferation (in vitro, FIG. 2A): increase

Source: US20250057883A1, “CONTROLLABLE STIMULATION OF GENETICALLY ENGINEERED LYMPHOCYTES FOR THE TREATMENT OF CANCER” (THE TRUSTEES OF THE UNIVERSITY OF PENNSYLVANIA, priority 2021, published 2025)
